Reference: PubChem BioAssay AID504467 (National Center for Advancing Translational Sciences (NCATS), 2011)
Screen size: about 330,000 compounds; about 7,700 (2.3%) were called active. The inconclusive results got no clear call from the source; some entries with a clear call stand among them for comparison. The call rests on the fitted dose curve; in most records, active means well fitted inhibition curve with a large enough effect; inconclusive means small, poorly fitted or top-dose-only effect, or effect the other way; inactive means flat fitted curve, though single readings scatter. Potencies of inconclusive entries are doubtful fits and often do not repeat.

assay: qHTS screen for small molecules that inhibit ELG1-dependent DNA repair in human embryonic kidney (HEK293T) cells expressing luciferase-tagged ELG1; conditions: HEK293T ELG1-luciferase reporter, luminescence, 16 h, DNA damage induced by 5-fluorouridine; activity change, negative = inhibition: at 46.1 µM (top of the series); further: nearly all actives have a fitted effect of over 55% in size
Method in brief: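 Overnight (16 hr) co-exposure of 2,000 cells/well to 5-fluorouridine and compound at 37 °C preceded detection. Luciferase was quantified via ONE-Glo luminescence; loss of signal denotes inhibition.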
On the % scale 0 is the no-effect control and ±100 the full control effect; potency means the concentration at half of the fitted maximal effect.

Structure (SMILES)	activity change, negative = inhibition	Potency
O=C(CCc1nc2sc3c(c2c(=O)[nH]1)CCCC3)NCCc1ccc(F)cc1	inactive: -15.1%	
O=C(NCc1ccc2c(c1)OCO2)c1c(-c2ccsc2)sc2ccccc12		inconclusive: 23.1 µM [inhibitor, partial curve, poor fit]
Cc1cc(OCC(=O)Nc2ccccn2)c2c(C)c(C)c(=O)oc2c1		inconclusive: 20.6 µM [activator, partial curve]
O=C(/C=C/c1ccc2ccccc2n1)N1CCN(S(=O)(=O)c2ccc(F)cc2)CC1		inconclusive: 10.3 µM [inhibitor, partial curve]
CCc1ccc(NS(=O)(=O)c2cc3[nH]c(=O)c(=O)[nH]c3cc2C)cc1		inconclusive: 23.1 µM [activator, single point]
Cc1ccc(CNC(=O)c2ccc(Cn3cc(-c4ccc(C)cc4)nc3-c3ccncc3)cc2)cc1		inconclusive: 16.4 µM [activator, partial curve]
COc1ccc(Nc2nc(OC)nc(OC)n2)cc1		inconclusive: 25.9 µM [activator, single point]
COc1ccc(C(=O)Nc2ccc(-c3cn4ccsc4n3)cc2)cc1S(=O)(=O)N1CCOCC1		inconclusive: 23.1 µM [inhibitor, single point]
CC(C)CN(C(=O)CSc1n[nH]c(-c2cccs2)n1)C1CCS(=O)(=O)C1 (stereo not drawn)	inactive: 17.9%	
NC(=O)C1CCCN(C(=O)CCc2nnc(C3(c4ccc(Cl)cc4)CCC3)o2)C1 (stereo not drawn)	inactive: 11%	
Cc1cc(Br)cc(Cl)c1OCC(=O)NC(=O)NCc1ccccc1	inactive: 26.9%	
COC(=O)CCSCC(=O)Nc1ccc(C)c(S(=O)(=O)N2CCCCC2)c1		inconclusive: 23.1 µM [inhibitor, single point]
CCCc1[nH][nH]c(=O)c1C(c1ccc(Cl)cc1)C(C#N)C#N (stereo not drawn)	inactive: -11.3%	
CC1CCN(S(=O)(=O)c2ccc3c(c2)c(=O)c(C(=O)NC2CCCC2)cn3C)CC1	inactive: -17.7%	
CC(C)n1nc(C(=O)NNC(=O)c2ccncc2)c2ccccc2c1=O	inactive: -16.8%	
COCCN(C(=O)C1CCC1)c1c(N)n(CC(C)C)c(=O)[nH]c1=O		inconclusive: 35.5 µM [activator, partial curve, poor fit]
O=C1Nc2ccccc2C1=Nc1cccc(Cl)c1	inactive: 1.28%	
Cc1ccnc(NC(=O)c2ccc(OCc3c(C)noc3C)cc2)c1		inconclusive: 3.66 µM [activator, full curve]
Cc1ccc(NC(=O)c2ccc(Oc3ncccn3)cc2)cc1		inconclusive: 16.4 µM [activator, partial curve]
Cn1c(=O)c(/C=C/c2ccccc2)nc2ccccc21		inconclusive: 2.59 µM [activator, partial curve]
Cc1ccc(-c2cc(C(=O)Nc3ccccn3)c3ccccc3n2)o1		inconclusive: 29.1 µM [inhibitor, single point]
CCCCn1c(SCC(=O)Nc2cccc(C)n2)nnc1-c1ccco1		inconclusive: 16.4 µM [inhibitor, partial curve, poor fit]
CCn1c(=O)cc(SCC(=O)Nc2ccc(C)cn2)c2ccccc21		inconclusive: 2.59 µM [activator, single point]

Structure (SMILES)	activity change, negative = inhibition	Potency
COc1ccc(N(C(=O)c2snc(C(N)=O)c2N)C(C(=O)NC2CCCC2)c2cccs2)c(OC)c1 (stereo not drawn)	inactive: -1.75%	
N/C(=N\OCc1ccccc1)c1nonc1N		inconclusive: 23.1 µM [activator, partial curve]
FC(F)(F)c1cnc(COc2ccc(Cl)cc2Cl)c(Cl)c1	inactive: 14.7%	
CCCC(=O)NC(c1ccc(N(C)C)cc1)c1ccc2cccnc2c1O (stereo not drawn)		inconclusive: 6.51 µM [inhibitor, single point]
COc1ccc2c(c1)C(=O)N(c1ccc(C)cc1C)C(=O)C2	inactive: -10.5%	
COc1ccc(CCN(Cc2cc3cccc(C)c3[nH]c2=O)C(=O)NC2CCCCC2)cc1OC	inactive: 0%	
COCCNC(=O)COC(=O)/C=C/c1c(C)nn(Cc2ccc(Cl)cc2Cl)c1Cl	inactive: -20.9%	
Cc1ccc(-n2c(C)cc(/C=N/NC(=O)c3ccncc3)c2C)c(C)c1	inactive: 5.46%	
C=CCn1c(SCC(=O)NCc2ccc3c(c2)OCO3)nc2scc(-c3ccc(F)cc3)c2c1=O		active: 14.6 µM
COc1cccc(C(=O)N2CCC(C(=O)NCc3ccc(C)cc3)CC2)c1	inactive: -5.25%	
COc1cccc2c1Oc1cc([N+](=O)[O-])cc(N(C)C(C)=O)c1C=C2		inconclusive: 23.1 µM [activator, single point]
N/C(=N\OC(=O)c1ccc(Cl)c([N+](=O)[O-])c1)c1ccccc1		inconclusive: 18.3 µM [activator, partial curve]
CCOC(=O)C1(Cc2ccccc2)CCN(Cc2cccc3c2OCO3)CC1		inconclusive: 20.6 µM [inhibitor, partial curve, poor fit]
Cc1ccc(N2CC(C(=O)OCC(=O)C(C)(C)C)CC2=O)cc1 (stereo not drawn)		inconclusive: 23.1 µM [activator, partial curve, poor fit]
N#CC1=C(N)C(C#N)(C#N)[C@H](c2ccoc2)[C@H]2CN(Cc3ccccc3)CC=C12	inactive: 5.03%	
NS(=O)(=O)c1cccc(NC(=O)CSc2nnc(C3CC3)n2Cc2ccccc2)c1		inconclusive: 18.3 µM [activator, single point]
O=C(Cn1cncn1)N/N=C/c1ccccc1O		inconclusive: 9.2 µM [inhibitor, partial curve, poor fit]
Cc1cccc(-c2noc(CN(C(C)C)S(=O)(=O)c3ccc(F)cc3)n2)c1		inconclusive: 29.1 µM [inhibitor, single point]
COc1cccc(C(=O)/C=C/Nc2ccc(S(=O)(=O)Nc3onc(C)c3C)cc2)c1		inconclusive: 18.4 µM [activator, partial curve, poor fit]
O=C(Cc1c(O)c2ccccc2[nH]c1=O)OC1CCCCC1	inactive: 9.66%	
COc1ccc(F)cc1C(=O)C1CCCN(Cc2ccc(Oc3ncccn3)cc2)C1 (stereo not drawn)	inactive: -15.8%	
OCC[C@@H]1C[C@@H](O)[C@H](O)[C@]2(Cc3ccccc3CO2)O1		inconclusive: 1.16 µM [inhibitor, single point]
O=C(Nc1cccc(F)c1)C1CCCN1C(=O)OCc1ccccc1 (stereo not drawn)		inconclusive: 20.6 µM [activator, partial curve, poor fit]

Structure (SMILES)	activity change, negative = inhibition	Potency
CN(C)CCCOC(=O)c1sc2ccccc2c1Cl		inconclusive: 29.1 µM [activator, partial curve, poor fit]
C/C(=N\NC(N)=O)c1c(F)cccc1F		inconclusive: 9.2 µM [activator, partial curve]
O=C(N/N=C/c1cccnc1)c1ccccc1OCc1ccc(Cl)cc1		active: 23.1 µM
CCCOc1ccc(-c2nnn(CC(=O)c3ccc4c(c3)OCCO4)n2)cc1		inconclusive: 17.8 µM [inhibitor, single point]
CCNC(=O)COc1ccc(Br)cc1Cl		inconclusive: 12.6 µM [activator, partial curve, poor fit]
Cc1cc(=O)[nH]c2ccc(S(=O)(=O)NC3CCCCC3)cc12		inconclusive: 20.6 µM [activator, partial curve]
O=C(NCc1cccs1)C(=O)c1c[nH]c2ccccc12		inconclusive: 18.3 µM [activator, single point]
Cc1ccccc1OCCC(=O)OCC(=O)N(C)c1c(N)n(Cc2ccccc2)c(=O)[nH]c1=O	inactive: 13.1%	
CC(=O)CCc1ccc(OCC(=O)Nc2cccc(S(=O)(=O)N(C)c3ccccc3)c2)cc1		inconclusive: 2.06 µM [inhibitor, partial curve, poor fit]
Cc1nn2c(N3CCN(CCO)CC3)c3c(nc2c1-c1ccccc1)CCCC3		inconclusive: 23.1 µM [inhibitor, partial curve, poor fit]
CCc1nc(SCC(=O)NCCc2ccccc2)c2oc3ccccc3c2n1		inconclusive: 10.3 µM [inhibitor, partial curve]
CCn1ccnc1CN(C)C(=O)CCc1nnc(CCC2CCCCC2)o1		inconclusive: 25.9 µM [inhibitor, single point]
CNS(=O)(=O)c1cn(CC(=O)NCc2ccc(F)cc2)cc1S(=O)(=O)NC	inactive: -1.11%	
Cc1ccc(NC(=O)c2cnccn2)c(Br)c1		inconclusive: 35.5 µM [activator, single point]
CCOC(=O)CN1CC23C=CC(O2)C(C(=O)Nc2ccc4c(c2)OCO4)C3C1=O (stereo not drawn)		inconclusive: 20.6 µM [activator, single point]
c1cc2c(cc1NC1CCCCCC1)OCO2		inconclusive: 9.2 µM [activator, partial curve, poor fit]
O=C(Cn1cnc2c(cnn2-c2ccccc2)c1=O)N1CCCc2ccccc21		active: 20.6 µM
CC(=O)Nc1ccc(S(=O)(=O)N2CCN(CCCOc3cc(C)ccc3C)CC2)cc1		inconclusive: 9.2 µM [inhibitor, single point]
COc1cc(CNn2c(C)n[nH]c2=S)cc(Cl)c1OCC(=O)NC(C)(C)C		inconclusive: 20.6 µM [inhibitor, single point]
Cc1ccc(S(=O)(=O)NC2(C(F)(F)F)NC(=O)N(Cc3ccccc3)C2=O)cc1 (stereo not drawn)		inconclusive: 20.6 µM [activator, partial curve, poor fit]
O=C(NNC(=O)c1ccc(Br)cc1)c1ccncc1		inconclusive: 14.1 µM [activator, single point]
CC1=C(C(=O)Nc2cccc(C)c2C)C(c2cccs2)NC(=S)N1 (stereo not drawn)		inconclusive: 29.1 µM [inhibitor, single point]

A second format for some results above:
CCCOc1ccc(-c2nnn(CC(=O)c3ccc4c(c3)OCCO4)n2)cc1
  Potency: inconclusive: 17.8 µM [inhibitor, single point]
Cc1ccc(NC(=O)c2cnccn2)c(Br)c1
  Potency: inconclusive: 35.5 µM [activator, single point]
Cc1ccc(S(=O)(=O)NC2(C(F)(F)F)NC(=O)N(Cc3ccccc3)C2=O)cc1 (stereo not drawn)
  Potency: inconclusive: 20.6 µM [activator, partial curve, poor fit]
